The source of these data is PubChem BioAssay AID2685 (National Center for Advancing Translational Sciences (NCATS), 2010).

Some of the results follow. Further columns of the screen follow, without active or inactive calls. The list favours compounds with an active or inconclusive main result. Potencies come from curve fits of mixed quality, noted in brackets.

The term AC50 denotes the concentration giving half of the maximal activity seen. A high value points to activity only at high concentration.

The nature of the assay: qHTS Assay for Lipid Storage Modulators in Drosophila S3 Cells.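 For cell number change: cells counted by Cell Tracker Red CMTPX staining in the red channel.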 The conditions noted are these: BODIPY lipid droplet fluorescence, 18-24 h; for cell number change: measured here: cell count max response, cells fed with added oleic acid. In a few lines: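 Laser-scanning cytometry quantifies lipid droplet accumulation (500–530 nm total intensity; droplet/cell object ratio) in oleic acid-fed (400 uM added) Drosophila S3 cells treated with a concentration series. 20 uM Triacsin C defined 100% inhibition.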

The mark [1] stands for this setting: measured here: cell number channel AC50, cells fed with added oleic acid.
Setting [2] is: measured here: lipid fluorescence (Fed channel) AC50, cells fed with added oleic acid.

Regarding `COc1cc(/C=N/OCC(=O)Nc2cc(C)cc(C)c2)ccc1OCc1ccc(Cl)cc1`, under setting [1], the AC50 was 0.13 µM [falling, full curve, poor fit].

With `COc1cccc(N2CCN(S(=O)(=O)c3ccc(-c4coc(C)n4)cc3)CC2)c1`, the cell number change was -24.9%. Besides, the half-maximal activity concentration (AC50) under setting [2] was 29.1 µM [falling, single point].

Take `CCOc1cc(/C=N/N=C(N)N)ccc1OCc1ccc(Cl)cc1`: the cell number change is -89%. For the same compound, the half-maximal activity concentration (AC50) under setting [1] was 20.6 µM [falling, single point]. Moreover, the AC50 under setting [2] was 23.1 µM [falling, single point].

On to `Cc1cccn2c(NCc3ccc4c(c3)OCO4)c(-c3ccc(O)cc3)nc12`, for which the cell number change was found to be 69.7%. Besides, under setting [1], the concentration at half-maximal activity (AC50) was 0.411 µM [rising, full curve]. In addition, the concentration at half-maximal activity (AC50) under setting [2] was 18.4 µM [rising, single point].

Regarding `CCOC(=O)c1ccc(N/C=C\C(=O)c2cccc(OC)c2)cc1`, the cell number change is -0.988%. Moreover, the concentration at half-maximal activity (AC50) under setting [2] is 16.4 µM [rising, single point].

Regarding `COc1ccc(Cl)cc1C(=O)NCCS(=O)(=O)N1CCN(c2ccccc2F)CC1`, the half-maximal activity concentration (AC50) under setting [2] was 29.1 µM [falling, single point].

In the case of `O=C(NC(=S)Nc1sc2c(c1C(=O)O)CCCC2)c1ccccc1`, the AC50 under setting [2] is 29.1 µM [rising, single point].

Take `C=CCn1c(O)c(N=NC(=S)Nc2ccccc2F)c2cc(S(=O)(=O)N3CCOCC3)ccc21`: the cell number change was 22.7%. For the same compound, the AC50 under setting [1] was 1.64 µM [rising, full curve, poor fit]. Further, the AC50 under setting [2] is 0.0651 µM [rising, full curve, poor fit].

As for `COC(=O)c1ccccc1NC(=S)N1CCC(N2CCCCC2)CC1`, the cell number change was -19%.

Turning to `Cc1ccc2c(c1)c1ncnc(N3CCOCC3)c1n2C`, the cell number change was -6.55%. For the same compound, under setting [2], the AC50 is 2.59 µM [rising, full curve, poor fit].

As to `CCOC(=O)C1C(=O)NC(N2CCN(c3ccccc3)CC2)=NC1c1ccco1` (centres undefined), the cell number change came out at 70.3%. Besides, the AC50 under setting [2] was 29.1 µM [rising, single point].

`COc1ccc(C(=O)N2CC3(C)C4CCC3(C)C2(C#N)C4)cc1OC` (centres undefined): the cell number change was 47.8%. Also, under setting [1], the AC50 is 9.2 µM [rising, partial curve, poor fit]. Moreover, under setting [2], the concentration at half-maximal activity (AC50) is 20.6 µM [rising, partial curve, poor fit].

Take `O=C(Nc1c2c(nn1-c1cccc(Cl)c1)CS(=O)C2)c1ccc2c(c1)OCO2` (centres undefined): the cell number change turned out to be 9.91%. The AC50 under setting [2] was 14.6 µM [rising, partial curve, poor fit].

For `COc1ccc(/C(C)=N/NC(=O)c2nc(C)cc(C)n2)cc1`, the cell number change is 48.9%. Moreover, the AC50 under setting [1] is 8.2 µM [rising, single point].

With `CCOC(=O)NC(=O)C(=CNc1cccc(OC)c1)C(=O)NC(=O)OCC`, the cell number change is 0.767%. The AC50 under setting [2] is 0.082 µM [rising, full curve, poor fit].

As to `COC(=O)N/N=C1\CCCc2ccccc21`, the cell number change worked out at 9.56%. Moreover, the concentration at half-maximal activity (AC50) under setting [2] was 20.6 µM [rising, single point].

`CC(C)Cc1nc2sc3c(NCc4ccco4)ncnc3c2c2c1COC(C)(C)C2`: the AC50 reads like this: under setting [1], 0.731 µM [rising, single point]; under setting [2], 0.58 µM [rising, single point].

Regarding `COc1ccc(-n2ccnc(SCC(=O)NC3CCCC3)c2=O)cc1`, the cell number change was 24.2%. In addition, the AC50 under setting [2] is 29.1 µM [rising, single point].

`CCOC(=O)C1C(=O)NC(c2ccccc2)=NC1c1ccc(F)cc1` (centres undefined): the cell number change was 14.4%. In addition, the AC50 under setting [2] was 14.6 µM [rising, single point].

In the case of `COc1cccc(-c2coc3cc4oc(=O)c(CC(=O)O)c(C)c4cc23)c1`, the cell number change was -8.11%. Further, under setting [1], the AC50 was 0.517 µM [rising, single point].

`COc1ccc(CNC(=O)CN(C(=O)c2csnn2)c2ccc(F)cc2)cc1`: the half-maximal activity concentration (AC50) under setting [2] is 29.1 µM [rising, single point].

`CC(C)(C)C1CCc2onc(C(=O)N3CCOCC3)c2C1` (centres undefined): the cell number change stood at 0.135%.

Turning to `Cc1cc(/C=C(\C#N)C(=O)OCC#N)c(C)n1CC(C)C`, the cell number change was determined as 93.5%. Further, the half-maximal activity concentration (AC50) under setting [1] was 20.6 µM [rising, partial curve]. For the same compound, the AC50 under setting [2] was 23.1 µM [rising, single point].

With `COc1ccc(NC(=O)Cn2c3ccccc3c3nc4n(c(=O)c32)CCS4)cc1`, the cell number change was -4.55%. Also, under setting [2], the half-maximal activity concentration (AC50) is 29.1 µM [falling, single point].

For `CCOc1cccc2cc(C(C)=O)oc12`, the cell number change is 50.7%. In addition, the AC50 under setting [1] was 0.00461 µM [rising, full curve, poor fit]. In addition, the concentration at half-maximal activity (AC50) under setting [2] was 6.51 µM [rising, full curve, poor fit].

Regarding `CC(=O)c1ccc(N2C(=O)NC3(CCCCC3)C2=O)cc1`, the cell number change is -21.6%. For the same compound, the AC50 under setting [2] was 2.31 µM [falling, full curve].

`CC(C)(C)c1ccc(SCCc2ccccn2)cc1`: the cell number change is -27%. In addition, the concentration at half-maximal activity (AC50) under setting [2] was 29.1 µM [falling, single point].

Turning to `COCCN(C(=O)CSc1ncc(C(F)(F)F)cc1Cl)c1c(N)n(Cc2ccccc2)c(=O)[nH]c1=O`, the cell number change was -63.1%. Also, under setting [1], the AC50 is 6.51 µM [falling, partial curve]. In addition, the AC50 under setting [2] was 5.17 µM [falling, partial curve].

Consider `CCn1c(O)c(N=Nc2ccc3ccccc3n2)c2ccccc21`, for which the cell number change stood at 18.6%. Moreover, under setting [2], the half-maximal activity concentration (AC50) was 29.1 µM [rising, single point].

Consider `Cc1ccccc1OCc1nc2ccccc2[nH]1`, for which the cell number change came to 8.67%. In addition, under setting [2], the AC50 is 23.1 µM [rising, single point].

Take `Cc1ccc(/C=C(\NC(=O)c2ccccc2)C(=O)NCCc2ccccn2)o1`: the cell number change stood at 0.57%. In addition, the AC50 under setting [2] is 0.116 µM [falling, full curve, poor fit].

Take `CCCOc1ccc(C2C(C(=O)c3ccc(C)o3)=C(O)C(=O)N2Cc2ccco2)cc1OCC` (centres undefined): the cell number change came to 4.95%. Under setting [2], the AC50 was 29.1 µM [rising, single point].

As to `COc1ccccc1/C=C/C(=O)NCC(=O)N=Nc1c(O)[nH]c2ccccc12`, the concentration at half-maximal activity (AC50) is, setting by setting: under setting [1], 4.11 µM [falling, partial curve, poor fit]; under setting [2], 5.8 µM [falling, full curve].

With `CC(=O)c1c(C)[nH]c(C(=O)OCC(=O)c2ccc(C)s2)c1C`, the cell number change is -7.8%. Also, the AC50 under setting [2] was 0.00411 µM [falling, full curve, poor fit].

Take `O=C(CN1C(=O)c2ccc([N+](=O)[O-])cc2C1=O)NC1CCS(=O)(=O)C1` (centres undefined): the cell number change was -3.74%. The AC50 under setting [2] was 3.66 µM [rising, partial curve].

Turning to `CCOc1ccc(S(=O)(=O)NCCC(=O)NCCCSc2ccccc2)cc1`, the concentration at half-maximal activity (AC50) is 0.461 µM [rising, full curve] under setting [1] and 0.651 µM [rising, partial curve, poor fit] under setting [2].

For `CC(C)C(=O)Nc1cccc(NC(=O)CCN2C(=O)c3ccccc3S2(=O)=O)c1`, the cell number change was -36.9%. For the same compound, the AC50 under setting [1] is 2.59 µM [falling, full curve]. The half-maximal activity concentration (AC50) under setting [2] is 8.2 µM [falling, partial curve].

On to `C=CC[n+]1c(C)csc1Nc1ccc(C)cc1`, for which the AC50 under setting [1] was 6.51 µM [rising, single point].

On to `c1ccc2c(CNCCN3CCOCC3)cccc2c1`, for which the cell number change was -7.48%. Besides, under setting [2], the AC50 was 29.1 µM [falling, single point].

Consider `CCOc1cc(CNCCO)cc(Br)c1OCc1ccc(Cl)cc1Cl`, for which the cell number change is -21.8%.

Regarding `COc1ccc(S(=O)(=O)N2Cc3ccccc3CC2C(=O)Nc2ccc3c(c2)OCO3)cc1` (centres undefined), the cell number change amounted to 4.8%. Also, the concentration at half-maximal activity (AC50) under setting [2] is 1.16 µM [rising, single point].

`Cc1ccc(NC(=O)Cn2nc(C(=O)O)c3ccccc3c2=O)c([N+](=O)[O-])c1`: the cell number change was -16.2%. Also, under setting [2], the half-maximal activity concentration (AC50) was 6.51 µM [rising, single point].

`Cc1ccc(-n2cnc3ncnc(-c4ccccc4)c32)cc1`: the cell number change was -8.31%. For the same compound, the AC50 under setting [1] was 0.146 µM [falling, full curve, poor fit]. Moreover, the concentration at half-maximal activity (AC50) under setting [2] was 29.1 µM [falling, single point].

Consider `Cc1nc(CCNC(=O)C2CCC(=O)N(CCc3cccc(F)c3)C2)sc1C` (centres undefined), for which the cell number change is -13.6%.

Regarding `CC(=O)Nc1ccc(S(=O)(=O)N2CCN(c3cc(C)nc4ccccc34)CC2)cc1`, the cell number change amounted to 67.6%. Further, the concentration at half-maximal activity (AC50) under setting [1] is 2.06 µM [rising, partial curve]. In addition, the half-maximal activity concentration (AC50) under setting [2] was 2.06 µM [rising, partial curve].

`CCCCCCCNC(=O)C1CC(=O)N(C)C(=Nc2ccc(OC)cc2)S1` (centres undefined): the cell number change was 16.6%. Further, the AC50 under setting [2] is 2.31 µM [rising, full curve].

For `CCCCn1nnc(NC(=O)c2ccc(-c3cccc([N+](=O)[O-])c3)o2)n1`, the cell number change was -3.82%. Further, the AC50 under setting [1] is 0.731 µM [rising, partial curve, poor fit]. In addition, under setting [2], the half-maximal activity concentration (AC50) is 0.82 µM [rising, single point].

In the case of `CC1=C(C(=O)OC2CCCCC2)C(c2ccccc2F)NC(=O)N1` (centres undefined), the cell number change came out at 22.5%. Also, the half-maximal activity concentration (AC50) under setting [2] was 29.1 µM [rising, single point].

For `Cn1cc(S(=O)(=O)CC(=O)Nc2ccc(Br)cc2)c2ccccc21`, the cell number change came to 17.7%. Further, the AC50 under setting [2] is 29.1 µM [rising, single point].

As to `CCn1c(=O)cc(N2CCC3(CC2)OCCO3)[nH]c1=O`, the cell number change was -27.1%. Moreover, the AC50 under setting [2] is 20.6 µM [falling, single point].

Consider `O=C(CN1CCS(=O)(=O)CC1)N/N=C/c1cccc(C(F)(F)F)c1`, for which the cell number change was determined as 27.8%. For the same compound, the AC50 under setting [2] is 35.5 µM [rising, single point].

Take `Cc1ccc2nc(NC(=O)CSc3nc(=O)n(CCN(C)C)c4c3CCCC4)sc2c1`: the cell number change was -3.1%.

Take `O=C(CSc1ncnc2sc(-c3ccccc3)cc12)NC1CCS(=O)(=O)C1` (centres undefined): the cell number change is -26.4%.

For the compound `CCNC(=S)NNC(=O)c1ccoc1C`, the cell number change is 4.63%. In addition, under setting [2], the concentration at half-maximal activity (AC50) is 0.411 µM [falling, single point].

In the case of `COc1cccc(CNC(=O)C(=O)NCC2CCCN2S(=O)(=O)c2cc(C)ccc2C)c1` (centres undefined), the concentration at half-maximal activity (AC50) under setting [1] was 6.51 µM [rising, single point].

With `CC12CN3CC(C)(CN(C1)C3c1ccc(Br)cc1)C2` (centres undefined), the cell number change was -16.4%. For the same compound, the half-maximal activity concentration (AC50) under setting [1] was 1.16 µM [falling, partial curve]. Further, the AC50 under setting [2] is 0.92 µM [falling, full curve].

Regarding `O=C(CCc1nnc(-c2ccc(-c3ccccc3)cc2)o1)N1CCCCC1`, the cell number change is -21.6%.

As to `COC(=O)N/N=C(\CCC(=O)O)c1cccs1`, the cell number change is -6.62%.
